From US20230348609A1 (WUXI BIOLOGICS SHANGHAI, published 2023)
No constants are given. Whether binding was seen depends on the method and setting. Some entries that bind do so weakly or less than the wild type.

The chains behind the UniProt entries cited, without tags or fusion partners. Where a name states a change or a piece, a line headed by the entry shows the natural chain unless it says otherwise. A line that says so, or that is headed by a name, gives the form on record, which may keep a tag or linker.
W352-cynoPro1.ECD.His (G7PG38, form named): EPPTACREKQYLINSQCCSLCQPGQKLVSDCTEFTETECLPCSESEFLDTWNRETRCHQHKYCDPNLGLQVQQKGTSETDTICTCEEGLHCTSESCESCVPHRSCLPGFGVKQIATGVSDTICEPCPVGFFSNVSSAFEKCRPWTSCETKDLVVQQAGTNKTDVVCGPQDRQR

Target: T1, W352-cynoPro1.ECD.His (cynomolgus monkey, UniProt G7PG38 21-193)
T1 construct: range 21-193; Also used for the 'recombinant cynomolgus monkey CD40 extracellular domain' coated in the ELISA of 3.5; also called Cynomolgus monkey CD40 extracellular domain, His tag; W352-cPro1.ECD.His; not shown: His tag
Experiment: ELISA, plate coated with 1 ug/mL recombinant CD40 extracellular domain

binding: binds
B1: W3525-1.9.16-P5-uIgG2K (antibody, V domains shown)
VH: QVQLVQSGAEVKKPGSSVKVSCKASGDTVSSYGISWVRQAPGQGLEWMGGSIPFFGTPNYAQKFQGRVTFTADESTSTAYMELSSLRSEDTAVYYCARARRGYSYGHYHYYAMDVWGQGTTVTVAS
VL: DTVMTQSPLSLPVTPGEPASISCRSGQSLLHNNAYNYLDWYLQKPGQSPQLLIYLGSNRASGVPDRFSGSGSGTDFTLKISRVEAEDVGVYYCMQALQTPLSFGGGTKVEIKR
notes: Fully human IgG2 kappa with wild-type human IgG2 constant region; also called W3525 antibody; final lead antibody
